In article PMC5069622, “Crystal structure of human aldehyde dehydrogenase 1A3 complexed with NAD^+ and retinoic acid” (Scientific Reports, 2016):
Results are given in words; binding and its absence hold for the method and conditions named. Some binding calls cover weakened binding; strength is not graded here.

Biological target: human aldehyde dehydrogenase 1A3 (human) (UniProt P47895)
Experiment: crystal structure; X-ray, 2.9 Å, space group P21, eight chains per asymmetric unit arranged as two independent tetramers; protein pre-incubated with 1 mM NAD+ and 1 mM retinoic acid, 20% PEG 3350, 0.24 M Na2 malonate pH 7.0, 10 mM TCEP, 20 °C; both purified

- binding: binds
B1: human aldehyde dehydrogenase 1A3 (enzyme, UniProt P47895 1-512, looked up)
chain: MATANGAVENGQPDRKPPALPRPIRNLEVKFTKIFINNEWHESKSGKKFATCNPSTREQICEVEEGDKPDVDKAVEAAQVAFQRGSPWRRLDALSRGRLLHQLADLVERDRATLAALETMDTGKPFLHAFFIDLEGCIRTLRYFAGWADKIQGKTIPTDDNVVCFTRHEPIGVCGAITPWNFPLLMLVWKLAPALCCGNTMVLKPAEQTPLTALYLGSLIKEAGFPPGVVNIVPGFGPTVGAAISSHPQINKIAFTGSTEVGKLVKEAASRSNLKRVTLELGGKNPCIVCADADLDLAVECAHQGVFFNQGQCCTAASRVFVEEQVYSEFVRRSVEYAKKRPVGDPFDVKTEQGPQIDQKQFDKILELIESGKKEGAKLECGGSAMEDKGLFIKPTVFSEVTDNMRIAKEEIFGPVQPILKFKSIEEVIKRANSTDYGLTAAVFTKNLDKALKLASALESGTVWINCYNALYAQAPFGGFKMSGNGRELGEYALAEYTEVKTVTIKLGDKNP
notes: human ALDH1A3, full-length open reading frame amplified from cDNA of the mesenchymal glioma stem cell line 83 and cloned into pDEST17; predicted molecular weight 56108 Da; Crystallised after pre-incubation with 1 mM NAD+ and 1 mM all-trans retinoic acid; No removal of the His tag is described; In the crystal no density for the N-terminal portion and the last four residues; also called ALDH1A3; …
